# Publication doi:10.1101/2020.09.04.282509
# The chains behind the UniProt entries cited, without tags or fusion partners.
# UniProt P89442: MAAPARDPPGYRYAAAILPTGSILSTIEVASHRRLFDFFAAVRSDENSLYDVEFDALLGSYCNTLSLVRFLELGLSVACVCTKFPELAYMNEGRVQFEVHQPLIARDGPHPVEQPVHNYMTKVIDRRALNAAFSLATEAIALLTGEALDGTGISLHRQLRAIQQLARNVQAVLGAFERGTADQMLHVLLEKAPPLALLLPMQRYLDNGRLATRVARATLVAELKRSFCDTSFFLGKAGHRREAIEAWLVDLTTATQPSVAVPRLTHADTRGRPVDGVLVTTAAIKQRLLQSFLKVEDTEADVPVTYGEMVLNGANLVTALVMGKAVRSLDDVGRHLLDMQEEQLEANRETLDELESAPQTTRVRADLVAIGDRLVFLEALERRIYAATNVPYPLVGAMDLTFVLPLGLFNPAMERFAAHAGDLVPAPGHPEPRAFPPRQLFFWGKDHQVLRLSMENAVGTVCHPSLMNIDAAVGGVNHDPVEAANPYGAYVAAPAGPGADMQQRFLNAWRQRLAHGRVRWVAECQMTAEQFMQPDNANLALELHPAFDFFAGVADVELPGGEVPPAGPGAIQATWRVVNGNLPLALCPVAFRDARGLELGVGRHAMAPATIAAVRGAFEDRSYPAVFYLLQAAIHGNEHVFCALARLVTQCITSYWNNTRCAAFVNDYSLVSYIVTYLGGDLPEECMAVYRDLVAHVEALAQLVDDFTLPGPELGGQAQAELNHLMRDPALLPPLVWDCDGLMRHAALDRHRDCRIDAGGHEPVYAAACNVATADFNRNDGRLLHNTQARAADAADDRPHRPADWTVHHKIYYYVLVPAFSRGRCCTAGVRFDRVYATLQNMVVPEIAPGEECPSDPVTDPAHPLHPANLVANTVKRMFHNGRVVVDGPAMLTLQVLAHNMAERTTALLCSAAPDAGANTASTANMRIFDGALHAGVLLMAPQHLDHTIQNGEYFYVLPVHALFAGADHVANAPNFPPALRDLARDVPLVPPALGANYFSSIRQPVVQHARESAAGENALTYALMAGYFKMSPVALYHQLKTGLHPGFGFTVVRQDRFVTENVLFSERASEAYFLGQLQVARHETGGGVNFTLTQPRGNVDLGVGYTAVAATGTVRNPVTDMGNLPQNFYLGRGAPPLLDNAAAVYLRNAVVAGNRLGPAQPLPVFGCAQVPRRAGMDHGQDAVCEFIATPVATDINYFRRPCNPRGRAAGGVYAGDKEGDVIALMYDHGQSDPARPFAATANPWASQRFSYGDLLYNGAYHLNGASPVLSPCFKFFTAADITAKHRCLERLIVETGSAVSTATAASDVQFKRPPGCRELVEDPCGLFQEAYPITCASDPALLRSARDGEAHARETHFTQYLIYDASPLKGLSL
# UniProt P89441: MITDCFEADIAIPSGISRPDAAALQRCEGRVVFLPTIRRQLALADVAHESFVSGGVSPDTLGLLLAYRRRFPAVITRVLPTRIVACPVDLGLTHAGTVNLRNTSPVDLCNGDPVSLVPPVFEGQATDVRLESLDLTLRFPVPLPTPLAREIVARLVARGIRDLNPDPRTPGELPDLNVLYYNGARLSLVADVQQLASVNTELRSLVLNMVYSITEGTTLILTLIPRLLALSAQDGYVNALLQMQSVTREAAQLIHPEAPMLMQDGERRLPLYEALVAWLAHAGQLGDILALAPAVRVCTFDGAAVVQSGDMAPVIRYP
# UniProt P89458: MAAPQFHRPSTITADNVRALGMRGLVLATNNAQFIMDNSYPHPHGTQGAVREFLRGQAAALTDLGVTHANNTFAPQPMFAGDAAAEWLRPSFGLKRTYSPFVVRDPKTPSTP
# UniProt P89461: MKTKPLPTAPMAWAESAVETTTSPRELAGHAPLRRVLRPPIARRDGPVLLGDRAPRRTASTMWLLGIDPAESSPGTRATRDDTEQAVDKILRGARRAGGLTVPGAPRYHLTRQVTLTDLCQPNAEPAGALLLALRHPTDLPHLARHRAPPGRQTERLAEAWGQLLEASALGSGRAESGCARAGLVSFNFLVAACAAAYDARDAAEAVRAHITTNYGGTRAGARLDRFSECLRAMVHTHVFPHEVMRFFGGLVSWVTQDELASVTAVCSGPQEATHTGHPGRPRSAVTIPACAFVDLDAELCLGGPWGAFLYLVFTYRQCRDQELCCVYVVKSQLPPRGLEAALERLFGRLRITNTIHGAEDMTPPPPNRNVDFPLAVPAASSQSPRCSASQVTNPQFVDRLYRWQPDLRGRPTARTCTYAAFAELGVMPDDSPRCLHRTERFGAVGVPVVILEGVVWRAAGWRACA
# No constants are given. Whether binding was seen depends on the method and setting. Some binding calls cover weakened binding; strength is not graded here.
# Tests used:
# [1] = molecular target: VP5 capsid protein of Herpes simplex virus type 2 (HSV-2) (Herpes simplex virus type 2) (UniProt P89442); test: cryo-EM structure
# [2] = molecular target: VP23 triplex protein of Herpes simplex virus type 2 (HSV-2) (Herpes simplex virus type 2) (UniProt P89441); test: cryo-EM structure
Substance,binding [1],binding [2]
VP26 capsid protein of Herpes simplex virus type 2 (HSV-2) (from UniProt P89458 1-112),binds,
VP23 triplex protein of Herpes simplex virus type 2 (HSV-2) (from UniProt P89441 1-318),binds,
VP19C triplex protein of Herpes simplex virus type 2 (HSV-2) (from UniProt P89461 1-466),binds,binds
